This is one part of the list. Single values are uncertain, as repeats are few or missing.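 Imaging used 1,536-well plates; nuclei positive for cleaved PARP by antibody were divided by total DNA-stained nuclei to yield the apoptosis fraction. Doses for screening kept most cells viable, and cell lines differ markedly in resting and induced cleaved-PARP levels.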
Assays:
Test in all cases: cleaved PARP positive nuclei fraction relative to DMSO control; melanoma cells; higher = more apoptosis
Conditions in all cases: library dose: low library concentration; 72 h
501Mel = test system: 501Mel
A101D = test system: A101D
A2058 = test system: A2058
A375 = test system: A375
C32 = test system: C32
CBRC008 = test system: CBRC008 (line from a melanoma biopsy)
CBRC014 = test system: CBRC014 (line from a melanoma biopsy)
CBRC016 = test system: CBRC016 (line from a melanoma biopsy)
CBRC017 = test system: CBRC017 (line from a melanoma biopsy)

Structure (SMILES)	cleaved PARP positive nuclei fraction (501Mel) [%]	cleaved PARP positive nuclei fraction (A101D) [%]	cleaved PARP positive nuclei fraction (A2058) [%]	cleaved PARP positive nuclei fraction (A375) [%]	cleaved PARP positive nuclei fraction (C32) [%]	cleaved PARP positive nuclei fraction (CBRC008) [%]	cleaved PARP positive nuclei fraction (CBRC014) [%]	cleaved PARP positive nuclei fraction (CBRC016) [%]	cleaved PARP positive nuclei fraction (CBRC017) [%]
Cc1cn(-c2cc(NC(=O)c3ccc(C)c(Nc4nccc(-c5cccnc5)n4)c3)cc(C(F)(F)F)c2)cn1 [nilotinib] + C[As](C)SC[C@H](NC(=O)CC[C@H](N)C(=O)O)C(=O)NCC(=O)O [Darinaparsin] (first compound 0.2 µM, partner dose 0.4 µM)	72.5	137	168	59.3	82.2	63.5	105	153	119
O=c1[nH]nc(Sc2ncc([N+](=O)[O-])s2)n1-c1ccc2c(c1)OCCO2 + C[As](C)SC[C@H](NC(=O)CC[C@H](N)C(=O)O)C(=O)NCC(=O)O [Darinaparsin] (first compound 0.2 µM, partner dose 0.4 µM)	136	214	204	189	75.7	105	127	82.5	121
C[C@]12O[C@H](C[C@]1(O)CO)n1c3ccccc3c3c4c(c5c6ccccc6n2c5c31)CNC4=O [Lestaurtinib] + CS(=O)(=O)CCNCc1ccc(-c2ccc3ncnc(Nc4ccc(OCc5cccc(F)c5)c(Cl)c4)c3c2)o1 [lapatinib] (first compound 0.004 µM, partner dose 0.8 µM)	154	108	77.2	160	84	137	87	101	96.3
Cn1cc(C2=C(c3cn(C4CCN(Cc5ccccn5)CC4)c4ccccc34)C(=O)NC2=O)c2ccccc21 [Enzastaurin] + Cn1c(=O)n(-c2ccc(C(C)(C)C#N)cc2)c2c3cc(-c4cnc5ccccc5c4)ccc3ncc21 [NVP-BEZ235] (first compound 0.8 µM, partner dose 0.004 µM)	96	197	49.9	80.2	68.7	142	109	128	99.8
CC[C@]1(O)C[C@H]2CN(CCc3c([nH]c4ccccc34)[C@@](C(=O)OC)(c3cc4c(cc3OC)N(C=O)[C@H]3[C@@](O)(C(=O)OC)[C@H](OC(C)=O)[C@]5(CC)C=CCN6CC[C@]43[C@@H]65)C2)C1 [vincristine] + C[As](C)SC[C@H](NC(=O)CC[C@H](N)C(=O)O)C(=O)NCC(=O)O [Darinaparsin] (first compound 0.0001 µM, partner dose 0.4 µM)	144	170	1480	337	231	202	105	73.4	134
CCCCCCCCc1ccc(CCC(N)(CO)CO)cc1 [fingolimod] + C[As](C)SC[C@H](NC(=O)CC[C@H](N)C(=O)O)C(=O)NCC(=O)O [Darinaparsin] (first compound 2 µM, partner dose 0.4 µM)	203	102	155	141	70.5	51.5	104	99	237
C[As](C)SC[C@H](NC(=O)CC[C@H](N)C(=O)O)C(=O)NCC(=O)O [Darinaparsin] + COCC[n+]1c2c(n(Cc3cnccn3)c1C)C(=O)c1ccccc1C2=O [YM155] (first compound 0.4 µM, partner dose 0.0004 µM)	70.8	51.6	92	210	79.1	299	98.6	33.6	78.9
N.N.[Cl][Pt][Cl] [cisplatin] + Nc1cccc2c1CN(C1CCC(=O)NC1=O)C2=O [lenalidomide] (first compound 1.6 µM, partner dose 1 µM)	314	127	102	141	95.4	201	102	124	226
C[C@@H](N)c1ccc(C(=O)Nc2ccnc3[nH]ccc23)cc1 + Cn1cc(C2=C(c3cn(C4CCN(Cc5ccccn5)CC4)c4ccccc34)C(=O)NC2=O)c2ccccc21 [Enzastaurin] (first compound 0.4 µM, partner dose 0.8 µM)	47.5	105	131	165	46.4	49.3	116	120	86.2
N.N.[Cl][Pt][Cl] [cisplatin] + O=C(O)c1ccc2c(c1)nc(Nc1cccc(Cl)c1)c1ccncc12 [CX4945] (first compound 1.6 µM, partner dose 0.4 µM)	69	29.6	176	95	80.3	262	104	112	213
N.N.[Cl][Pt][Cl] [cisplatin] + COCC[n+]1c2c(n(Cc3cnccn3)c1C)C(=O)c1ccccc1C2=O [YM155] (first compound 1.6 µM, partner dose 0.0004 µM)	67.3	92.6	78.4	53.2	75.7	270	91	109	102
C[C@@H](N)c1ccc(C(=O)Nc2ccnc3[nH]ccc23)cc1 + C[C@]12O[C@H](C[C@]1(O)CO)n1c3ccccc3c3c4c(c5c6ccccc6n2c5c31)CNC4=O [Lestaurtinib] (first compound 0.4 µM, partner dose 0.004 µM)	73.3	147	163	92.9	92.1	155	116	102	98.6

Rewritten in CSV form: part of the list above.
Structure (SMILES),cleaved PARP positive nuclei fraction (501Mel) [%],cleaved PARP positive nuclei fraction (A101D) [%],cleaved PARP positive nuclei fraction (A2058) [%],cleaved PARP positive nuclei fraction (A375) [%],cleaved PARP positive nuclei fraction (C32) [%],cleaved PARP positive nuclei fraction (CBRC008) [%],cleaved PARP positive nuclei fraction (CBRC014) [%],cleaved PARP positive nuclei fraction (CBRC016) [%],cleaved PARP positive nuclei fraction (CBRC017) [%]
"O=c1[nH]nc(Sc2ncc([N+](=O)[O-])s2)n1-c1ccc2c(c1)OCCO2 + C[As](C)SC[C@H](NC(=O)CC[C@H](N)C(=O)O)C(=O)NCC(=O)O [Darinaparsin] (first compound 0.2 µM, partner dose 0.4 µM)",136,214,204,189,75.7,105,127,82.5,121
"CC[C@]1(O)C[C@H]2CN(CCc3c([nH]c4ccccc34)[C@@](C(=O)OC)(c3cc4c(cc3OC)N(C=O)[C@H]3[C@@](O)(C(=O)OC)[C@H](OC(C)=O)[C@]5(CC)C=CCN6CC[C@]43[C@@H]65)C2)C1 [vincristine] + C[As](C)SC[C@H](NC(=O)CC[C@H](N)C(=O)O)C(=O)NCC(=O)O [Darinaparsin] (first compound 0.0001 µM, partner dose 0.4 µM)",144,170,1480,337,231,202,105,73.4,134
